# PubChem BioAssay AID248 (DTP/NCI, 2004)
# The list shows only some results of the screen, not a fair sample: it gathers tests that were run many times, whatever their T/C, doses with no T/C, and many T/C values between a quarter and a half above the control. Other doses and runs of a compound stand elsewhere. T/C is the treated group as % of the vehicle group. Some doses have a count of surviving animals in place of a T/C: the source holds a T/C of zero for them, seemingly a mark for toxic or unscored doses. Some doses without a T/C left all or most animals alive at the check, yet need not have been tolerated: survival well below the control is almost never listed, so the zero probably covers shortened survival too. Survivors were counted at the toxicity check, usually on the fifth day, unless a day is given; later deaths do not show. Schedules are NCI's codes, taken here to give the interval after Q, in days (D) or hours (H), and the number of doses after X. Some entries were tested several times; the results are listed from low to high. Some schedule codes hold Z or #, which are not explained here. For survival time, the PubChem record calls one and a half times the control and up active, and a quarter to a half above the control has no call in these data; cut-offs in other NCI protocols can differ. Some T/C values are followed by the survivors on the day toxicity was checked, most often the fifth; where none is given, no animal had died by that day.
# Test system: L1210 leukemia ip in BDF1 mice, survival T/C
# Assay: NCI In Vivo Anticancer Drug Screen. Data for tumor model L1210 Leukemia (intraperitoneal) in B6D2F1 (BDF1) mice
# Settings: higher T/C = longer survival
structure (smiles),measurement,setting,value
c1cc2n(n1)CCN2,T/C,"T/C endpoint: mean survival time, dose: 150.0 mg/kg/injection, schedule: Q01DX009 (ip), vehicle: water",126 % of control
same,T/C,"T/C endpoint: mean survival time, dose: 200.0 mg/kg/injection, schedule: Q01DX009 (ip), vehicle: saline",126 [5 of 6 alive] and 142 % of control
same,T/C,"T/C endpoint: mean survival time, dose: 200.0 mg/kg/injection, schedule: Q01DX009 (ip), vehicle: water",131 % of control
same,T/C,"T/C endpoint: mean survival time, dose: 200.0 mg/kg/injection, schedule: Q04DX003 (ip), vehicle: water",138 % of control
same,survivor count,"T/C endpoint: mean survival time, dose: 202.0 mg/kg/injection, schedule: Q01DX Z (ip), vehicle: methylcellulose (MC)",3 of 6
same,T/C,"T/C endpoint: mean survival time, dose: 240.0 mg/kg/injection, schedule: Q04DX003 (ip), vehicle: water",142 % of control
same,T/C,"T/C endpoint: mean survival time, dose: 270.0 mg/kg/injection, schedule: Q04DX003 (ip), vehicle: saline",126 % of control
same,survivor count,"T/C endpoint: mean survival time, dose: 300.0 mg/kg/injection, schedule: Q01DX009 (ip), vehicle: water",1 of 6
same,T/C,"T/C endpoint: mean survival time, dose: 400.0 mg/kg/injection, schedule: Q01DX001 (sc), vehicle: saline",126 % of control
same,survivor count,"T/C endpoint: mean survival time, dose: 400.0 mg/kg/injection, schedule: Q01DX009 (ip), vehicle: saline",2 of 6
same,survivor count,"T/C endpoint: mean survival time, dose: 400.0 mg/kg/injection, schedule: Q01DX009 (ip), vehicle: water",3 of 6
same,T/C,"T/C endpoint: mean survival time, dose: 400.0 mg/kg/injection, schedule: Q04DX003 (ip), vehicle: saline, evaluated on day 30","100, 104, 127 [5 of 6 alive], 143, 153 % of control [5 of 6 alive]"
same,T/C,"T/C endpoint: mean survival time, dose: 400.0 mg/kg/injection, schedule: Q04DX003 (ip), vehicle: saline, evaluated on day 45",147 % of control
same,T/C,"T/C endpoint: mean survival time, dose: 400.0 mg/kg/injection, schedule: Q04DX003 (oral), vehicle: saline",140 % of control
same,T/C,"T/C endpoint: mean survival time, dose: 400.0 mg/kg/injection, schedule: Q04DX003 (sc), vehicle: saline",130 % of control
same,survivor count,"T/C endpoint: mean survival time, dose: 666.0 mg/kg/injection, schedule: Q04DX003 (ip), vehicle: water",3 of 6
same,T/C,"T/C endpoint: mean survival time, dose: 800.0 mg/kg/injection, schedule: Q01DX001 (sc), vehicle: saline",131 % of control [5 of 6 alive]
same,survivor count,"T/C endpoint: mean survival time, dose: 800.0 mg/kg/injection, schedule: Q04DX003 (sc), vehicle: saline",4 of 6
same,survivor count,"T/C endpoint: mean survival time, dose: 1600.0 mg/kg/injection, schedule: Q01DX001 (oral), vehicle: saline",2 of 6
same,survivor count,"T/C endpoint: mean survival time, dose: 1600.0 mg/kg/injection, schedule: Q04DX003 (oral), vehicle: saline",1 of 6 and 2 of 6
same,T/C,"T/C endpoint: median survival time, dose: 44.0 mg/kg/injection, schedule: Q03HX024 (ip), vehicle: saline",131 % of control
same,T/C,"T/C endpoint: median survival time, dose: 66.0 mg/kg/injection, schedule: Q03HX024 (ip), vehicle: saline",144 % of control
same,T/C,"T/C endpoint: median survival time, dose: 100.0 mg/kg/injection, schedule: Q01DX009 (oral), vehicle: saline",128 % of control [5 of 6 alive]
same,T/C,"T/C endpoint: median survival time, dose: 200.0 mg/kg/injection, schedule: Q01DX005 (ip), vehicle: saline",133 % of control
same,T/C,"T/C endpoint: median survival time, dose: 200.0 mg/kg/injection, schedule: Q01DX009 (ip), vehicle: saline",135 % of control
same,T/C,"T/C endpoint: median survival time, dose: 200.0 mg/kg/injection, schedule: Q01DX009 (oral), vehicle: saline",125 % of control
same,T/C,"T/C endpoint: median survival time, dose: 200.0 mg/kg/injection, schedule: Q04DX003 (ip), vehicle: Klucel (hydroxypropylcellulose) (HPC)",127 % of control
same,T/C,"T/C endpoint: median survival time, dose: 200.0 mg/kg/injection, schedule: Q04DX003 (ip), vehicle: saline, evaluated on day 5",126 % of control
same,T/C,"T/C endpoint: median survival time, dose: 200.0 mg/kg/injection, schedule: Q04DX003 (ip), vehicle: saline, evaluated on day 27",126 % of control
same,T/C,"T/C endpoint: median survival time, dose: 200.0 mg/kg/injection, schedule: Q04DX003 (ip), vehicle: saline, evaluated on day 30",111 % of control
same,T/C,"T/C endpoint: median survival time, dose: 200.0 mg/kg/injection, schedule: Q04DX003 (ip), vehicle: saline, evaluated on day 45",122 % of control
same,T/C,"T/C endpoint: median survival time, dose: 200.0 mg/kg/injection, schedule: Q04DX003 (sc), vehicle: saline",130 % of control
same,T/C,"T/C endpoint: median survival time, dose: 200.0 mg/kg/injection, schedule: Q08DX002 (ip), vehicle: saline, evaluated on day 30",120 and 141 % of control
same,T/C,"T/C endpoint: median survival time, dose: 200.0 mg/kg/injection, schedule: Q08DX002 (ip), vehicle: saline, evaluated on day 40",122 % of control
same,T/C,"T/C endpoint: median survival time, dose: 200.0 mg/kg/injection, schedule: Q08DX002 (ip), vehicle: saline, evaluated on day 45",127 % of control
same,T/C,"T/C endpoint: median survival time, dose: 200.0 mg/kg/injection, schedule: Q08DX002 (sc), vehicle: saline",125 % of control
same,T/C,"T/C endpoint: median survival time, dose: 300.0 mg/kg/injection, schedule: Q04DX003 (ip), vehicle: saline",135 % of control
same,T/C,"T/C endpoint: median survival time, dose: 300.0 mg/kg/injection, schedule: Q08DX002 (ip), vehicle: saline",129 % of control
same,survivor count,"T/C endpoint: median survival time, dose: 400.0 mg/kg/injection, schedule: Q01DX005 (ip), vehicle: saline",4 of 6
same,survivor count,"T/C endpoint: median survival time, dose: 400.0 mg/kg/injection, schedule: Q01DX009 (ip), vehicle: saline",2 of 6
same,survivor count,"T/C endpoint: median survival time, dose: 400.0 mg/kg/injection, schedule: Q01DX009 (oral), vehicle: saline",0 of 6 and 4 of 8
same,survivor count,"T/C endpoint: median survival time, dose: 400.0 mg/kg/injection, schedule: Q01DX009 (sc), vehicle: saline",0 of 8
same,T/C,"T/C endpoint: median survival time, dose: 400.0 mg/kg/injection, schedule: Q04DX003 (ip), vehicle: saline",133 % of control
same,T/C,"T/C endpoint: median survival time, dose: 400.0 mg/kg/injection, schedule: Q08DX002 (ip), vehicle: saline, evaluated on day 30",139 % of control
same,T/C,"T/C endpoint: median survival time, dose: 400.0 mg/kg/injection, schedule: Q08DX002 (ip), vehicle: saline, evaluated on day 40",144 % of control
same,T/C,"T/C endpoint: median survival time, dose: 400.0 mg/kg/injection, schedule: Q08DX002 (sc), vehicle: saline",135 % of control
same,T/C,"T/C endpoint: median survival time, dose: 440.0 mg/kg/injection, schedule: Q04DX003 (ip), vehicle: saline",148 % of control
same,T/C,"T/C endpoint: median survival time, dose: 440.0 mg/kg/injection, schedule: Q08DX002 (ip), vehicle: saline",134 % of control
same,T/C,"T/C endpoint: median survival time, dose: 500.0 mg/kg/injection, schedule: Q04DX003 (ip), vehicle: saline",145 % of control [7 of 8 alive]
same,T/C,"T/C endpoint: median survival time, dose: 600.0 mg/kg/injection, schedule: Q08DX002 (ip), vehicle: saline",125 % of control [6 of 8 alive]
same,T/C,"T/C endpoint: median survival time, dose: 660.0 mg/kg/injection, schedule: Q04DX003 (ip), vehicle: saline",144 % of control
same,T/C,"T/C endpoint: median survival time, dose: 666.0 mg/kg/injection, schedule: Q01DX001 (ip), vehicle: saline",134 % of control [9 of 10 alive]
same,survivor count,"T/C endpoint: median survival time, dose: 800.0 mg/kg/injection, schedule: Q01DX005 (ip), vehicle: saline",0 of 6
same,survivor count,"T/C endpoint: median survival time, dose: 800.0 mg/kg/injection, schedule: Q04DX003 (ip), vehicle: Klucel (hydroxypropylcellulose) (HPC)",4 of 6
same,survivor count,"T/C endpoint: median survival time, dose: 800.0 mg/kg/injection, schedule: Q04DX003 (ip), vehicle: saline",5 of 8
same,survivor count,"T/C endpoint: median survival time, dose: 800.0 mg/kg/injection, schedule: Q04DX003 (oral), vehicle: saline",4 of 8 and 6 of 6
same,survivor count,"T/C endpoint: median survival time, dose: 800.0 mg/kg/injection, schedule: Q04DX003 (sc), vehicle: saline",6 of 8
same,survivor count,"T/C endpoint: median survival time, dose: 800.0 mg/kg/injection, schedule: Q08DX002 (ip), vehicle: saline",4 of 6
same,survivor count,"T/C endpoint: median survival time, dose: 800.0 mg/kg/injection, schedule: Q08DX002 (oral), vehicle: saline",0 of 6 and 5 of 8
same,survivor count,"T/C endpoint: median survival time, dose: 800.0 mg/kg/injection, schedule: Q08DX002 (sc), vehicle: saline",6 of 8
same,survivor count,"T/C endpoint: median survival time, dose: 833.0 mg/kg/injection, schedule: Q04DX003 (ip), vehicle: saline",4 of 8
same,T/C,"T/C endpoint: median survival time, dose: 1000.0 mg/kg/injection, schedule: Q01DX001 (ip), vehicle: saline",144 % of control [8 of 10 alive]
